Measured values as given in US20100297020A1, “PHOSPHORYLATED AND PHOSPHONATED PYRONE ANALOGS FOR THERAPEUTIC TREATMENT” (Limerick Biopharma, Inc., priority 2008, published 2010).
For some of these results: At least one read-out could not be matched to a standard name with certainty. For some of these results: At least one compound was matched to its structure with a doubt left.

Experiments:
[1] = system: male ZDF rats; experiment: 4 week study in ZDF rats (compound 2, compound 3); type: in vivo
From the text: Seven week old male ZDF rats are used for the study.
Experimental Design: This study is a 4 week study Using 32 7-week old male ZDF rats, divided into 4 treatment arms (8 rats/arm).

[2] = system: male db/db mice; experiment: 4-week study in db/db mice; type: in vivo; details: daily i.p.; compound 3 30 and 10 mg/kg; rosiglitazone 10 mg/kg
From the text: The animals are maintained (starting at 7-week old) on a 12-hr light and 12-hr dark cycle, and provided with commercial rodent chow, LabDiet® 5K52, and water ad libitum.

[3] = system: male ZDF rats; experiment: 4-week study in male ZDF rats (compound 1); details: compound 1 30 mg/kg; rosiglitazone 6 mg/kg; compared to vehicle
[4] = system: BB19 cells, human BCECs (brain capillary endothelial cells); experiment: Tacrolimus uptake assay; type: cell-based; details: 0.1 μM test compound; 1 hour incubation; 3H-tacrolimus 34 nM
Protocol: BB19 cells, human BCECs (brain capillary endothelial cells) immortalized with the E6E7 genes of human papilloma virus, were kindly provided from Jacques G. Prudhomme, Department of Biology, University of California, Riverside, U.S.A. The cells were cultured as monolayer culture in Amniomax™-C100 basal medium (catalog number 17001-157) with Amniomax™-C100 supplement (catalog number 12556-049) (Invitrogen, Basel, CH).
Cells were seeded onto culture surfaces precoated with 10 μg/cm^2 rat tail collagen type I (BD Bioscience, Allschwil, CH) at a density of approximately 50′000 cells/cm^2 and were cultured in an incubator at 37° C. with 5% CO2, 95% fresh air and saturated humidity. For uptake assays, cells were seeded on precoated 96-well plates. Assays were performed at confluency, after 6 days in culture.
BB19 cells were seeded 50′000 cells/cm^2 on 96-well plates (Falcon) and incubated under condition described above for 6 days. Before starting the assay, cells were washed 2 times with pre-warmed Dulbecco's MEM with Glutamax-I (catalog number 61965) (Invitrogen AG, Basel, CH), supplemented with 1% non essential amino acids, 1% sodium pyruvate, 50 μg/ml gentamycin (Invitrogen AG) (DMEM). Cells were then incubated for 15 min at 37° C. and 120 rpm in DMEM with or without the specified concentrations of test compounds under investigation. After this pre-incubation, cells were incubated in DMEM containing [propyl-3H]-dihydro-FK506 (3H-tacrolimus, 1 μCi/ml, 34 nM) and with or without the specified concentrations of test compounds for 1 hour at 37° C. and 120 rpm. During this 1-hour incubation period, influx and efflux of the substrate, ^3H-tacrolimus, occur. After the 1-hour incubation period, assay was terminated by placing the assay plate on ice and washing the cells twice with ice-cold DMEM. Determination of cell associated ^3H-tacrolimus was performed by addition of Insta Gel and scintillation liquid to trypsinized cells followed by analysis on a scintillation counter (Packard TriCarb2000, Can berra Packard S.A.). The results are expressed as: % of control=100×[^3H-tacrolimus conc. with test compound]/[^3H-tacrolimus conc. with vehicle]

## CN(CCOc1ccc(CC2SC(=O)NC2=O)cc1)c1ccccn1 (stereo not shown) [Rosiglitazone, reference compound]
[1]; 4 weeks daily i.p., compound 2 100 mg/kg, compound 3 100 mg/kg day 4 and 5, 50 mg/kg day 6-28, rosiglitazone 6 mg/kg
  plasma glucose levels: steady glucose levels
[1]; compared to vehicle treated animals
  glycated hemoglobin levels (% HbA1c) at termination: lower glycated hemoglobin levels
[1]; day 14 and day 21, over vehicle controls
  triglycerides: marked decreases in triglycerides
[2]
  plasma glucose level on Day-28: lower than vehicle treated control mice
[3]
  glycated hemoglobin levels (% HbA1c) at termination: significantly lower glycated hemoglobin levels
  pancreatic insulin levels: significantly higher than that of the vehicle treated animals

## O=c1c(O)c(-c2ccc(O)c(OCP(=O)(O)O)c2)oc2ccccc12 [Compound 18, (2-Hydroxy-5-(3-hydroxy-4-oxo-4H-chromen-2-yl)phenoxy)methylphosphonic acid]
[4]
  cell associated ^3H-tacrolimus uptake, % of control: 60 % of control

## O=c1c(O)c(-c2ccc(OCP(=O)(O)O)cc2)oc2cc(O)cc(O)c12 [Compound 11, (4-(3,5,7-Trihydroxy-4-oxo-4H-chromen-2-yl)phenoxy)methylphosphonic acid]
[4]
  cell associated ^3H-tacrolimus uptake, % of control: 29 % of control

## O=c1c(OCP(=O)(O)O)c(-c2ccc(O)c(O)c2)oc2ccccc12 [Compound 20, (2-(3,4-Dihydroxyphenyl)-4-oxo-4H-chromen-3-yloxy)methylphosphonic acid]
[4]
  cell associated ^3H-tacrolimus uptake, % of control: 67 % of control

## O=c1c(OCP(=O)(O)O)c(-c2ccc(O)c(O)c2)oc2cc(O)ccc12 [Compound 3, Fisetin-3-O-methylphosphonic acid]
[4]
  cell associated ^3H-tacrolimus uptake, % of control: 33 % of control
